Assay results: PubChem BioAssay AID2417 (National Center for Advancing Translational Sciences (NCATS), 2010)
Screen size: about 140,000 compounds; about 4,300 (3.1%) were called active. This list was built around the results that the source calls inconclusive (neither active nor inactive); the mix of calls is not that of the screen.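 How the source made its calls: active means readout at or below -70, meaning at least 70% loss of cells showing the perinucleolar compartment, a nuclear body marking cancer cells; inconclusive means readout between -30 and a set limit; inactive means the rest.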

test: High Content Assay for Compounds that inhibit the Assembly of the Perinucleolar Compartment; settings: PC3M PTB-GFP, PNC prevalence imaging, 16 h; at 10 µM; hits give low values;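 further: plate controls were DMSO wells for no effect and camptothecin positive control wells for full effect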
Procedure, shortened: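 Compounds are pinned in duplicate onto adhered PC3M cells stably expressing GFP-tagged PTB and incubated 16 h at 37 C. Cells are then fixed, nuclei stained with Hoechst, and PNC-positive cells counted.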

| SMILES | activity change (PNC), negative = inhibition |
| --- | --- |
| CCCCN(CCCNC(=O)c1c(C)cc(=O)oc1C)c1ccccc1 | active: -97.8% |
| O=C(CCc1ccccc1)NNC(=O)c1ccccc1Br | inconclusive: -74.2% |
| O=C(Cc1ccccc1)Nc1ccccc1CO | inactive: 8.07% |
| S=C(NCCN1CCOCC1)Nc1cccc2ccccc12 | inactive: 2.95% |
| O=C(C1=C(O)/C(=C/c2ccc(O)cc2)CCC1)C(F)(F)F | inactive: 12.6% |
| CC(C)N(C(=O)CSc1nn2c(=O)c(C(C)(C)C)nnc2s1)c1ccccc1 | inactive: 45.1% |
| O=C1c2ccccc2C(=O)N1CC#CCN1CCN(C2CCCCC2)CC1 | inconclusive: -56% |
| CCONC(=O)Nc1ccccc1 | inconclusive: -37.1% |
| O=C(Nc1ccc(Cn2cccn2)cc1)c1ccc(COc2ccc(Br)cc2)cc1 | inconclusive: -48.7% |
| Cc1ccc(-n2c3c(cc(C(=O)NC4CCSC4=O)c2=O)C(=O)CCC3)cc1 (stereo unspecified) | inconclusive: -67.8% |
| CCC1=NN(C(=O)c2cccnc2)C(O)(C(F)(F)F)C1 (stereo unspecified) | inconclusive: -34.6% |
| O=C(c1ccco1)N1c2ccccc2Sc2ccccc21 | inactive: 218% |
| COc1cccc(-c2cc(C(=O)Nc3ccc4c(c3)OCCO4)c3ccccc3n2)c1 | inconclusive: -48.7% |
| CC(C)(C)NC(=O)/C(=C\c1ccc(Br)cc1)NC(=O)c1cccs1 | inconclusive: -31.2% |
| Cc1ccc2oc(=O)cc(CN3CCOCC3)c2c1 | inconclusive: -30.2% |
| COc1ccc(S(=O)(=O)N2CCCC(C(=O)O)C2)cc1 (stereo unspecified) | inconclusive: -32.8% |
| COC(=O)c1cc(=O)n(-c2ccc(F)cc2)c(=Nc2ccc(F)cc2)s1 | inactive: 37.8% |
| Cc1ccc(C2/C(=C(\O)c3ccc4c(c3)OCCO4)C(=O)C(=O)N2CCCN(C)C)o1 (stereo unspecified) | inconclusive: -56.6% |
| O=C(Cn1cnc2ccccc21)N/N=C/c1ccco1 | inconclusive: -40% |
| Cc1ccc(S(=O)(=O)N2c3ccccc3-c3c(ssc3=S)C2(C)C)cc1 | inconclusive: -36.4% |
| O=C(c1cccc(Br)c1)N1CCN(C(=O)N2CCCCC2)CC1 | inconclusive: -41.8% |
| Cc1ccc(NC(=O)Nc2cccs2)c(Cl)c1 | inconclusive: -56.5% |
| CC(C)NC(=O)CN(CCc1ccccc1)S(C)(=O)=O | inconclusive: -70.5% |
| O=C(Nc1c2c(nn1-c1ccc(F)cc1)CSC2)c1ccc(S(=O)(=O)N2CCOCC2)cc1 | inconclusive: -41% |
| Cc1sc2nc(N3CCOCC3)[nH]c(=O)c2c1-c1ccccc1 | inconclusive: -47.4% |
| COc1ccc2nc(NC(=O)CSC3=NCCS3)sc2c1 | inconclusive: -33.1% |

Single entries from the list:
Under activity change (PNC), negative = inhibition, `O=C(C1=C(O)/C(=C/c2ccc(O)cc2)CCC1)C(F)(F)F` has inactive: 12.6%
Under activity change (PNC), negative = inhibition, `COc1ccc(S(=O)(=O)N2CCCC(C(=O)O)C2)cc1` (stereo unspecified) has inconclusive: -32.8%
